PubChem BioAssay AID743121 – NCATS – 2013
Shown is an unselected part of about 26,000 reagents tested. Over the whole deposit, 167 (0.63%) are marked active. 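Calls are per gene from RSA p-values that are not deposited; an individual active-marked siRNA can sensitise only weakly.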 The numbers tell different reagents against one gene apart. Further read-outs or replicates are left out here.

Aim: 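Knock-downs that sensitise breast cancer cells to camptothecin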 (primary screen)
Cells: MDA-MB-231 cells, a human breast cancer line
Knock-down reagent: single siRNA against human genes, 20 nM siRNA (0.8 pmol per well)
Timing: 120 h (drug added 48 h after transfection, read 72 h later)
Challenge: camptothecin 20 nM (about EC30) for 72 h; vehicle 0.1% DMSO in parallel plates
Detection: 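Cell viability by ATP luminescence (CellTiter-Glo) as % of non-targeting siRNA wells, and the log2 ratio of viability without drug over viability with camptothecin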
Direction: log2 vehicle/camptothecin viability: higher = stronger sensitisation to camptothecin
Hit rule: 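Each gene scored by redundant siRNA activity (RSA) over its individual siRNA ratios; a gene is called active at p < 0.001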

log2 vehicle/camptothecin viability, by target gene and reagent
LRP10 (LDL receptor related protein 10): #1 -0.138 inactive; #2 -0.11 inactive; #3 -0.218 inactive; #4 0.235 inactive
RORB (RAR related orphan receptor B): #1 -0.0704 inactive; #2 -0.11 inactive; #3 -0.0437 inactive; #4 0.0986 inactive
FGFR2 (fibroblast growth factor receptor 2): #1 -0.272 inactive; #2 -0.116 inactive; #3 -0.262 inactive; #4 -0.661 inactive
BRD1 (bromodomain containing 1): #1 0.805 inactive; #2 -0.0753 inactive; #3 -0.114 inactive; #4 -0.326 inactive
SERPINB6 (serpin family B member 6): #1 -0.397 inactive; #2 0.0642 inactive; #3 -0.0158 inactive; #4 1.25 inactive
AMZ2 (archaelysin family metallopeptidase 2): #1 -0.144 inactive; #2 -0.0978 inactive; #3 -0.278 inactive; #4 -0.375 inactive

Taken from above.
AMZ2 (archaelysin family metallopeptidase 2) #4, log2 vehicle/camptothecin viability: -0.375
Entry of BRD1 (bromodomain containing 1) #4 under “log2 vehicle/camptothecin viability”: -0.326
SERPINB6 (serpin family B member 6) #2, log2 vehicle/camptothecin viability = 0.0642
LRP10 (LDL receptor related protein 10) #2, call → inactive
BRD1 (bromodomain containing 1) #1, log2 vehicle/camptothecin viability = 0.805
For “log2 vehicle/camptothecin viability”, RORB (RAR related orphan receptor B) #2 is entered as -0.11

Additional records follow.
log2 vehicle/camptothecin viability, by target gene and reagent
DPYD (dihydropyrimidine dehydrogenase): #1 0.314 inactive; #2 -0.56 inactive; #3 -0.485 inactive
BAIAP2L1 (BAR/IMD domain containing adaptor protein 2 like 1): #1 -0.299 inactive; #2 -0.495 inactive; #3 0.219 inactive; #4 -0.104 inactive
SSH3 (slingshot protein phosphatase 3): #1 0.112 inactive; #2 -0.434 inactive; #3 -0.312 inactive; #4 -0.15 inactive
ALDH7A1 (aldehyde dehydrogenase 7 family member A1): #1 -0.374 inactive; #2 -0.393 inactive; #3 -0.465 inactive
APOB (apolipoprotein B): #1 -0.145 inactive; #2 -0.0219 inactive; #3 -0.575 inactive; #4 -0.316 inactive
PAX6 (paired box 6): #1 -0.154 inactive; #2 0.116 inactive; #3 0.118 inactive; #4 -0.805 inactive
PDK4 (pyruvate dehydrogenase kinase 4): #1 -0.283 inactive; #2 -0.395 inactive; #3 -0.727 inactive; #4 -0.21 inactive
KCNH7 (potassium voltage-gated channel subfamily H member 7): #1 0.0349 inactive; #2 0.822 inactive; #3 -0.0376 inactive; #4 0.254 inactive
CPE (carboxypeptidase E): #1 -0.61 inactive; #2 0.0219 inactive; #3 -0.308 inactive; #4 -0.371 inactive
GPR139 (G protein-coupled receptor 139): #1 0.0506 inactive; #2 0.0437 inactive; #3 0.138 inactive; #4 0.068 inactive
METTL2B (methyltransferase 2B, tRNA N3-cytidine): #1 -0.183 inactive; #2 -0.341 inactive; #3 0.669 inactive; #4 -0.055 inactive
MUTYH (mutY DNA glycosylase): #1 -0.31 inactive; #2 -0.32 inactive; #3 -0.548 inactive; #4 -0.33 inactive
